For 33 targets, log2 fold change results are on record in the supplement of paper PMC10849652.

Protein sequences, listed by entry. Tags and fused reporters are not part of them. Lines headed by an entry give the natural chain unless they say otherwise; changes in a name come on top.
UniProt O43529: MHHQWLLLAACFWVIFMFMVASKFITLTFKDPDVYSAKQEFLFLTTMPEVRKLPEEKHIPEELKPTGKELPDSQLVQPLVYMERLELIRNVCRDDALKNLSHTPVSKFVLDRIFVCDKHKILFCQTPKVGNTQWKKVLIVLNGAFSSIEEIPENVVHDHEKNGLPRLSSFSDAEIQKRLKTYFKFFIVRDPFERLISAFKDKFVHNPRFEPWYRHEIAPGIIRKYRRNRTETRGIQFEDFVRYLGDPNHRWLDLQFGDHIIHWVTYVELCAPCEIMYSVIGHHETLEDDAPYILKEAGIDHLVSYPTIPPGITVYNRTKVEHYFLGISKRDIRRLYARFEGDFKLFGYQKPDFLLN
UniProt Q9UBY8, whole entry, looked up: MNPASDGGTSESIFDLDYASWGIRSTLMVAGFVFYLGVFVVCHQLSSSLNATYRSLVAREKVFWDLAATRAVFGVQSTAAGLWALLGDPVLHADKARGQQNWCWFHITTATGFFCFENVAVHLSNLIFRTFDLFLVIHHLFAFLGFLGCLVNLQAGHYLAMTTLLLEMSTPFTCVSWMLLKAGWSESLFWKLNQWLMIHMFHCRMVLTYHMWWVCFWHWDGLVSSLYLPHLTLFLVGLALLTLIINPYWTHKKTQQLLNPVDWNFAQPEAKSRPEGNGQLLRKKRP
UniProt P49761: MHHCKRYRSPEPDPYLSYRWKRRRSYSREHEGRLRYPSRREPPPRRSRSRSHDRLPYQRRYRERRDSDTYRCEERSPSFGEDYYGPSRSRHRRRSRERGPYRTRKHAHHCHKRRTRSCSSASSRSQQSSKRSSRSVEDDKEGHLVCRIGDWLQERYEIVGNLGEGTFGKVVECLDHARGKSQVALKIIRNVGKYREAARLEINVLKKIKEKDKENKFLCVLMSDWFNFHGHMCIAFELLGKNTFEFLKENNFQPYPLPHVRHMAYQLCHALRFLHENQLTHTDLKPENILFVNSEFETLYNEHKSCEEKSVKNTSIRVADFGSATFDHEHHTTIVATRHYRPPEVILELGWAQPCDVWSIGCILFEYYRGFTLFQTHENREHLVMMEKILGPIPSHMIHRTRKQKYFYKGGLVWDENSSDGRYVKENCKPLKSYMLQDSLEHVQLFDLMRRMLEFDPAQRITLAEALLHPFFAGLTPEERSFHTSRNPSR
UniProt Q00610: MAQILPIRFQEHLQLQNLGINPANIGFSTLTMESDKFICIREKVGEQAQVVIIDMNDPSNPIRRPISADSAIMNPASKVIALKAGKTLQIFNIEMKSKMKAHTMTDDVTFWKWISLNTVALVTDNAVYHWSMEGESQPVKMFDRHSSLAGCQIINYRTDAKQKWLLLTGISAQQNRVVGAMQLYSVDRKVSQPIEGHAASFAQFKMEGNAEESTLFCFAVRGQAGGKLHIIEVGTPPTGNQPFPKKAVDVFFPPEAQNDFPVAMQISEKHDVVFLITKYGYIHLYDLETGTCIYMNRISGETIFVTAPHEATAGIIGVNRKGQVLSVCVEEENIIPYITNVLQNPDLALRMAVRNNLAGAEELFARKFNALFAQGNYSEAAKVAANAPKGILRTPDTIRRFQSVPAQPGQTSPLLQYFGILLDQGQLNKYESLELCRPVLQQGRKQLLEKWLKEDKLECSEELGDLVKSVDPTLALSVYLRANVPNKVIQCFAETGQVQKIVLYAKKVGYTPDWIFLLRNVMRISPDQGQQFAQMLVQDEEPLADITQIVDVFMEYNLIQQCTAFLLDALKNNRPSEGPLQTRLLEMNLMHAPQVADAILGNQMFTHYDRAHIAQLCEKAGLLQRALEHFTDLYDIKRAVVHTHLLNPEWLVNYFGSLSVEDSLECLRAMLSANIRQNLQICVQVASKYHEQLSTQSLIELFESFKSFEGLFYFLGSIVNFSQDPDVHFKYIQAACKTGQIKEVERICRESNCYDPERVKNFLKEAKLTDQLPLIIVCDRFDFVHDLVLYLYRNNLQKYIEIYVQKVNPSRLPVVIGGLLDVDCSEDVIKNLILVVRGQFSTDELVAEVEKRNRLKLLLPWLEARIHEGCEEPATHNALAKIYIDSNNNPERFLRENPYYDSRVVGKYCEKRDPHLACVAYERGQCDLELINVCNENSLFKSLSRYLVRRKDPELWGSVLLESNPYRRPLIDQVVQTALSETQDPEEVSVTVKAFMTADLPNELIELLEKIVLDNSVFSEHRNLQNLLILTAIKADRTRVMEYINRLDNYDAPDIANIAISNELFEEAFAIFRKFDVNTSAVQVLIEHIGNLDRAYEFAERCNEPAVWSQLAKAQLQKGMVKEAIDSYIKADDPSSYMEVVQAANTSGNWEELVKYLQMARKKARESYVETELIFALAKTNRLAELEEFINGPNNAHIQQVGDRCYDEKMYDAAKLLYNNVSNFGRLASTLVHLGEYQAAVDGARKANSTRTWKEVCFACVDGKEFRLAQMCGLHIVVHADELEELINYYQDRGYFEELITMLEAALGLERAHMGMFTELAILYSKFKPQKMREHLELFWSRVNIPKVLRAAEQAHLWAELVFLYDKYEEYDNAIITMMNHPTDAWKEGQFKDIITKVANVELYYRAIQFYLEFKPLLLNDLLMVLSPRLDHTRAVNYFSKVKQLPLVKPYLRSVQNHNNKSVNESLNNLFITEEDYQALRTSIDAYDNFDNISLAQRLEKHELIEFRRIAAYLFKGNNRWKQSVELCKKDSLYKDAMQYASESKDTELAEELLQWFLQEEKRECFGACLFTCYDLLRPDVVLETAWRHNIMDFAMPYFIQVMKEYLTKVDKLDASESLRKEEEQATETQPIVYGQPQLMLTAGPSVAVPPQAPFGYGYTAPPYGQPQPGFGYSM
UniProt Q86X52: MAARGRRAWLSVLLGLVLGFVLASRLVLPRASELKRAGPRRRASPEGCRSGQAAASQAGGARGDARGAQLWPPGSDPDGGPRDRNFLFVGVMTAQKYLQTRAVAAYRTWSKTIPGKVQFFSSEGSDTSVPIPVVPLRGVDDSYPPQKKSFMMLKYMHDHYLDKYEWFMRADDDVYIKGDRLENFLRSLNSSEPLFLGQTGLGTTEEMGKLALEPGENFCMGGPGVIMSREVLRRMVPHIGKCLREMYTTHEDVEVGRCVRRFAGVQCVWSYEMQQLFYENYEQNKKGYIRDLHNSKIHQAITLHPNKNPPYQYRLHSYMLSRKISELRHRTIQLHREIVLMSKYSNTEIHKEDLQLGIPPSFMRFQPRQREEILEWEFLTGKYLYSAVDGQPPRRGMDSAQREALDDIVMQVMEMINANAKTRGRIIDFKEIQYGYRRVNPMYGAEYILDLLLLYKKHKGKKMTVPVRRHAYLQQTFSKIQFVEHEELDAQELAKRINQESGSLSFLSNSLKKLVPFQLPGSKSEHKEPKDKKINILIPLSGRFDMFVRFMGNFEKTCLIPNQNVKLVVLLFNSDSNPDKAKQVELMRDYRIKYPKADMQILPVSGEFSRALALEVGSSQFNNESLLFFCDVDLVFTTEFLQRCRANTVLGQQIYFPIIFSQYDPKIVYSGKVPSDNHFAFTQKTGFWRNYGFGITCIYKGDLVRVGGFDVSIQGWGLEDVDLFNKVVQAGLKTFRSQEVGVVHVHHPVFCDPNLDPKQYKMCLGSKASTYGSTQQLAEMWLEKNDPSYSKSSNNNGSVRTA
UniProt P49759: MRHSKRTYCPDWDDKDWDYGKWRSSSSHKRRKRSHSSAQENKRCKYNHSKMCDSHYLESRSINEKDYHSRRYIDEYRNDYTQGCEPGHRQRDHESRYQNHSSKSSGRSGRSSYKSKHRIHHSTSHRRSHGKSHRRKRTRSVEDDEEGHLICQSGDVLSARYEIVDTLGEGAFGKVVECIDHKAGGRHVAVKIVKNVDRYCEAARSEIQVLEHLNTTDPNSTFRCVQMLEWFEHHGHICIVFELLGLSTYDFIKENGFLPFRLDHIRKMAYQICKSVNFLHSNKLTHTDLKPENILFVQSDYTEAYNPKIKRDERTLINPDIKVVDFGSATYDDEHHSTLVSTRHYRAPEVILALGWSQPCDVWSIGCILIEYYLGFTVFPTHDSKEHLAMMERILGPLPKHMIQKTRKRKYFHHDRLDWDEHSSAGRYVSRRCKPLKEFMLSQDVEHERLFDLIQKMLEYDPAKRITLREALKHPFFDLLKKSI
UniProt Q96EP1: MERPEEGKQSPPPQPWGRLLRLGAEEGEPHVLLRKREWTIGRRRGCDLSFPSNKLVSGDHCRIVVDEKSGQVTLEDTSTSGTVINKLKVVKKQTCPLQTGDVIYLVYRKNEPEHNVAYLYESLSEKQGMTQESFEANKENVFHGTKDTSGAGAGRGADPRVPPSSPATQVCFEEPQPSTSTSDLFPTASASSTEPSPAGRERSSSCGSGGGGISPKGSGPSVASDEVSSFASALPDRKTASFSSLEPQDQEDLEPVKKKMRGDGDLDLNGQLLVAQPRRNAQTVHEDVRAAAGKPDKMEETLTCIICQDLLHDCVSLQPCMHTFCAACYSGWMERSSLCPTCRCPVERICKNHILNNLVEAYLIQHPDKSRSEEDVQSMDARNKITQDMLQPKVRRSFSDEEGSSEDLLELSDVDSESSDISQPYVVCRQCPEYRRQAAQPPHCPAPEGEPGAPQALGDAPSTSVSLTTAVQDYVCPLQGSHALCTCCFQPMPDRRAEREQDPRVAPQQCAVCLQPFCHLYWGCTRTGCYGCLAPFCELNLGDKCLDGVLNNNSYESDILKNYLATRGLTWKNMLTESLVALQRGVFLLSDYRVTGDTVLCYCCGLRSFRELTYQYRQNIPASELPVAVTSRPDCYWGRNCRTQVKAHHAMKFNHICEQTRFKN
UniProt P51797: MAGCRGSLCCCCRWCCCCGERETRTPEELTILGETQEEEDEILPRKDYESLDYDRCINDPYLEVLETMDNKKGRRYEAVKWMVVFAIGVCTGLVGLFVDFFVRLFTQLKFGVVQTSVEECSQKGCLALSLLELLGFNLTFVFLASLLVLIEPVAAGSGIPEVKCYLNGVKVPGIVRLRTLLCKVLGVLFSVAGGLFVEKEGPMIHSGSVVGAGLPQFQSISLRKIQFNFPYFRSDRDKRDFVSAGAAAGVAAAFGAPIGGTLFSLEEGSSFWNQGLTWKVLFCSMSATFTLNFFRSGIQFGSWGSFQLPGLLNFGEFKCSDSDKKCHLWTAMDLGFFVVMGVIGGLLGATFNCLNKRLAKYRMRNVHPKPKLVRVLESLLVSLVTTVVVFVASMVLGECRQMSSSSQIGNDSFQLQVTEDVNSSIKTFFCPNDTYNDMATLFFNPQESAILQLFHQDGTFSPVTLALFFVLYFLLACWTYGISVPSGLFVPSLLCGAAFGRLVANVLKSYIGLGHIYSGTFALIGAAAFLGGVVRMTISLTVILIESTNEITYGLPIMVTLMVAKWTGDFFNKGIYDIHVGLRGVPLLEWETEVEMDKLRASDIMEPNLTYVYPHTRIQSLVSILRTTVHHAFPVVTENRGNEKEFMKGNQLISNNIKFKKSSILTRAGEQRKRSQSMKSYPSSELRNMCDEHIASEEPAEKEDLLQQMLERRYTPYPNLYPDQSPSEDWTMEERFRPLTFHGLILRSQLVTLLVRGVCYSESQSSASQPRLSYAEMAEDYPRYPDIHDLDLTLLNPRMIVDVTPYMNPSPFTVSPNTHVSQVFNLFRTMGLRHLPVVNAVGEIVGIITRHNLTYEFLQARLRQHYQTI
UniProt Q9NX76: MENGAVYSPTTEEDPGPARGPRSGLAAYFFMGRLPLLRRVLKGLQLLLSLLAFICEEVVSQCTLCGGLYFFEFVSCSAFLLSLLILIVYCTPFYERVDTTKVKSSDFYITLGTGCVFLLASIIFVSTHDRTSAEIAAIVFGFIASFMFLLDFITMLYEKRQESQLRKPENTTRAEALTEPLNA
UniProt Q8IZ52: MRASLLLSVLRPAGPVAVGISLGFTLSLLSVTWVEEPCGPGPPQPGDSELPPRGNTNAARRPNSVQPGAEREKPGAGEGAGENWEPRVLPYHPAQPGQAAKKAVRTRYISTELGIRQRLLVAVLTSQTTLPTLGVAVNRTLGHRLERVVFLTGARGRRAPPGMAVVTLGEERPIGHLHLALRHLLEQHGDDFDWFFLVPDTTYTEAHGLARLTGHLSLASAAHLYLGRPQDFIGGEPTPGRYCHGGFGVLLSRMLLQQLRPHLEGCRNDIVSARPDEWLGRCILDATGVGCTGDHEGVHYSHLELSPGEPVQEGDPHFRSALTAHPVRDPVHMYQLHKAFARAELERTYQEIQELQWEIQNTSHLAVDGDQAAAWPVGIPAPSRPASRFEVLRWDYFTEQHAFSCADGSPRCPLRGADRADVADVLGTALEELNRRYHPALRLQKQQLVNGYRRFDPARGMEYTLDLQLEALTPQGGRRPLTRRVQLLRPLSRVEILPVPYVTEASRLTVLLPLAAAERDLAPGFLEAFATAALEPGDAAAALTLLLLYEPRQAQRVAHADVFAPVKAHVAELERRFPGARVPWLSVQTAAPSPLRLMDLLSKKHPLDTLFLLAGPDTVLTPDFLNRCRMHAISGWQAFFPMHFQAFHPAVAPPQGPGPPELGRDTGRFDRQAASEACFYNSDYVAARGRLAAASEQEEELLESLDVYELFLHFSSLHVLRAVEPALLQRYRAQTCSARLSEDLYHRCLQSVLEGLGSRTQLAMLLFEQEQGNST

This is one part of the list.

Compound in this assay: C#Cc1cccc(Nc2ncnc3cc(OCCOC)c(OCCOC)cc23)c1 [erlotinib]
The assay is described as follows: log2 fold change, soluble protein after heating vs DMSO (PISA); higher = thermal stabilisation; K562 lysate, 10 uM; active = over 0.2 and 3.5 SD of the protein, either way, in both replicates (recomputed). The method in brief: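 Quantification was by TMTpro 16plex LC-MS/MS with equalised channel sums, applied to the supernatant after 21,000xg for 90 min. Samples were crude K562 extract at 1 mg/mL protein in PBS pH 7.4 with 1 mM MgCl2, treated with 10 μM compound for 30 min, heated for 3 min across 48°C-58°C, pooled and brought to 0.5% NP-40 at 4°C. Values are log-two fold changes in thermal stability relative to solvent controls, from duplicates.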
Take CHPF2 (UniProt Q9P2E5): the log2 fold change is inactive: 0.025.
Next, CHST10 (UniProt O43529): inactive: -0.029; CLIP4 (UniProt Q8N3C7): inactive: -0.038; CLN8 (UniProt Q9UBY8): inactive: -0.048.
Next, CLUAP1 (UniProt Q96AJ1): inactive: 0.025; CISD3 (UniProt P0C7P0): inactive: -0.014.
Next, CLCN2 (UniProt P51788): inactive: 0.188.
As to CLUAP1 (UniProt I3L2E1), the log2 fold change is inactive: 0.142.
Under CLTA (UniProt P09496) stands inactive: -0.047; under CKAP2L (UniProt Q8IYA6), inactive: -0.109.
Under CLK3 (UniProt P49761) stands inactive: 0.055; under CLIP1 isoform 2 (UniProt P30622), inactive: -0.067.
Turning to CLTC (UniProt Q00610), the log2 fold change is inactive: 0.007.
On to CHD9 (UniProt Q3L8U1), for which the log2 fold change was inactive: -0.046.
As to CHSY1 (UniProt Q86X52), the log2 fold change was inactive: -0.101.
On to CNBP (UniProt P62633), for which the log2 fold change was inactive: 0.05.
Regarding CLN6 (UniProt Q9NWW5), the log2 fold change is inactive: 0.094.
Next, CLIP2 (UniProt Q9UDT6): inactive: 0.027.
For CMTM4 (UniProt Q8IZR5), the log2 fold change was inactive: -0.136.
Next, CLIC6 (UniProt Q96NY7): inactive: 0.015.
Under CLINT1 isoform 3 (UniProt Q14677) stands inactive: -0.062.
For the target CLK1 isoform 3 (UniProt P49759), the log2 fold change is inactive: -0.078.
With CLASP1 isoform 4 (UniProt Q7Z460), the log2 fold change is inactive: 0.199.
As to CHFR (UniProt Q96EP1), the log2 fold change was inactive: -0.011.
Under CLN3 (UniProt Q13286) stands inactive: -0.035; under CLN5 (UniProt O75503), inactive: -0.084; under CLCN6 isoform 5 (UniProt P51797), inactive: -0.031.
Next, CLEC16A isoform 2 (UniProt Q2KHT3): inactive: 0.067; CMTM6 (UniProt Q9NX76): inactive: 0.067; CHPF (UniProt Q8IZ52): inactive: 0.028.
With CHEK2 (UniProt O96017), the log2 fold change was inactive: -0.042.
In the case of CHTF8 (UniProt P0CG13), the log2 fold change was inactive: -0.005.
Under CLDN12 (UniProt P56749) stands inactive: -0.087.
